Results deposited as PubChem BioAssay AID1159584 (Peter MacCallum Cancer Centre, 2016).

- Assay: 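Genes whose loss is lethal only together with E-cadherin loss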 (primary screen)
- Cells: human MCF10A breast epithelial cells, parental and CDH1-null
- Reagent: siRNA against human genes
- Read-out: 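Cell viability by CellTiter-Glo ATP luminescence, each line scaled to the mean of mock wells across plates, then CDH1-null over parental ratio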
- Scale: CDH1-null / parental viability ratio: higher = CDH1-null cells survive relatively better than parental; CDH1-null viability vs mock: higher = more viable CDH1-null cells
The deposit covers about 18,000 reagents; below is a part drawn at random. The numbers tell different reagents against one gene apart. Further read-outs or replicates are left out here. The record does not give: the amount of reagent, the time to read-out.

no.	gene symbol	siRNA no.	CDH1-null / parental viability ratio	CDH1-null viability vs mock (fraction of mock)
1	GRM3 (glutamate metabotropic receptor 3)	1	1.44	1.01
2	F8 (coagulation factor VIII)	1	0.78	0.64
3	C6orf163 (chromosome 6 open reading frame 163)	1	1.07	0.88
4	COPS6 (COP9 signalosome subunit 6)	1	0.74	0.77
5	RNF113A (ring finger protein 113A)	1	0.91	0.74
6	PBDC1 (polysaccharide biosynthesis domain containing 1)	1	0.98	0.92
7	RTP1 (receptor transporter protein 1)	1	1	0.58
8	RPP30 (ribonuclease P/MRP subunit p30)	1	1.16	0.58
9	TDRD5 (tudor domain containing 5)	1	0.94	0.66
10	DDX31 (DEAD-box helicase 31)	1	0.82	0.74
11	FITM2 (fat storage inducing transmembrane protein 2)	1	1.08	0.8
12	DZIP3 (DAZ interacting zinc finger protein 3)	1	0.8	0.52
13	ZNF18 (zinc finger protein 18)	1	1.28	1.19
14	IL33R (interleukin 33 receptor)	1	1.05	0.82
15	STK39 (serine/threonine kinase 39)	1	0.68	0.42
16	FKBP7 (FKBP prolyl isomerase 7)	1	1.04	1.04
17	SLC34A2	1	1.1	0.95
18	HMX1 (H6 family homeobox 1)	1	0.95	0.91

Reformatted: results already given
gene symbol	siRNA no.	CDH1-null / parental viability ratio	CDH1-null viability vs mock (fraction of mock)
RTP1 (receptor transporter protein 1)	1	1	0.58
RPP30 (ribonuclease P/MRP subunit p30)	1	1.16	0.58
TDRD5 (tudor domain containing 5)	1	0.94	0.66
DDX31 (DEAD-box helicase 31)	1	0.82	0.74

The results go on:
no.	gene symbol	siRNA no.	CDH1-null / parental viability ratio	CDH1-null viability vs mock (fraction of mock)
19	MRPL54 (mitochondrial ribosomal protein L54)	1	1.17	1.12
20	KRTAP4-2 (keratin associated protein 4-2)	1	0.98	0.82
21	PLCL2 (phospholipase C like 2)	1	1.04	1.02
22	SKP1 (S-phase kinase associated protein 1)	1	0.86	0.74
23	SMURF1 (SMAD specific E3 ubiquitin protein ligase 1)	1	1.18	0.93
24	GLCE (glucuronic acid epimerase)	1	1.15	0.99
25	ANGPT1 (angiopoietin 1)	1	0.96	0.54
26	UCHL3 (ubiquitin C-terminal hydrolase L3)	1	1.12	0.94
27	TAS2R46 (taste 2 receptor member 46)	1	0.83	0.53
28	PCDHAC1 (protocadherin alpha subfamily C, 1)	1	1.17	1.02
29	CACNB1 (calcium voltage-gated channel auxiliary subunit beta 1)	1	1.29	0.62
30	TIMM10 (translocase of inner mitochondrial membrane 10)	1	1.06	0.92
31	PMM1 (phosphomannomutase 1)	1	0.98	0.82
32	ZRANB3 (zinc finger RANBP2-type containing 3)	1	1.01	1.25
33	PTPN2 (protein tyrosine phosphatase non-receptor type 2)	1	1.29	1.01
34	CRTAP (cartilage associated protein)	1	1.11	0.98
35	STAG3 (STAG3 cohesin complex component)	1	0.84	0.57
36	CAPN10 (calpain 10)	1	1.08	0.52
37	ZSWIM7 (zinc finger SWIM-type containing 7)	1	0.72	0.46
38	S100A7 (S100 calcium binding protein A7)	1	1.09	0.87
39	LINC02910 (long intergenic non-protein coding RNA 2910)	1	0.99	0.92
40	CDHR4 (cadherin related family member 4)	1	1.33	0.69
41	HS3ST6 (heparan sulfate-glucosamine 3-sulfotransferase 6)	1	0.78	0.65
42	MT1A (metallothionein 1A)	1	1.17	0.94
43	LMF1 (lipase maturation factor 1)	1	1.25	0.9
44	RRM2 (ribonucleotide reductase regulatory subunit M2)	1	1.62	0.52
45	RRM2 (ribonucleotide reductase regulatory subunit M2)	2	1.17	0.82
46	RYK (receptor like tyrosine kinase)	1	0.93	0.76
